Assay results reported in publication PMC3281842, “Crystal Structure of TDRD3 and Methyl-Arginine Binding Characterization of TDRD3, SMN and SPF30” (PLoS ONE, 2012).
No constants are given. Whether binding was seen depends on the method and setting. For part of these data: Where a sequence is shown, tags or fusion partners need not be part of it.

Assays:
Assay in all cases: fluorescence polarisation; fluorescein-labeled peptides; 20 mM Tris pH 7.5, 50 mM NaCl, 1 mM DTT, 0.01% Triton X-100; 25°C; one-site binding model; Kd the average of three independent measurements; both purified
H3R2me1 = target: T1, H3R2me1
T1 sequence (peptide, monomethylarginine at R2; fluorescein label (position not stated)): ARTKQTARKSY

H3R2me2a = target: T2, H3R2me2a
T2 sequence (peptide, asymmetric dimethylarginine at R2; fluorescein label (position not stated)): ARTKQTARKSY

H3R2me2s = target: T3, H3R2me2s
T3 sequence (peptide, symmetric dimethylarginine at R2; fluorescein label (position not stated)): ARTKQTARKSY

Histone H3K4me1 = target: T4, Histone H3K4me1
T4 sequence (peptide, monomethyllysine at K4; fluorescein label (position not stated)): ARTKQTARKST

Histone H3K4me2 = target: T5, Histone H3K4me2
T5 sequence (peptide, dimethyllysine at K4; fluorescein label (position not stated)): ARTKQTARKST

Histone H3K4me3 = target: T6, Histone H3K4me3
T6 sequence (peptide, trimethyllysine at K4; fluorescein label (position not stated)): ARTKQTARKST

Histone H3K9me1 = target: T7, Histone H3K9me1
T7 sequence (peptide, monomethyllysine at K9; fluorescein label (position not stated)): ARTKQTARKSTGGKA

Histone H3K9me2 = target: T8, Histone H3K9me2
T8 sequence (peptide, dimethyllysine at K9; fluorescein label (position not stated)): ARTKQTARKSTGGKA

Histone H3K9me3 = target: T9, Histone H3K9me3
T9 sequence (peptide, trimethyllysine at K9; fluorescein label (position not stated)): ARTKQTARKSTGGKA

Measured: binding

B1: SPF30 (aa 65–150) (domain or fragment, UniProt O75940 65-150)
chain: ASTQPTHSWKVGDKCMAVWSEDGQCYEAEIEEIDEENGTAAITFAGYGNAEVTPLLNLKPVEEGRKAKEDSGNKPMSKKEMIAQQR
no binding: all assays above
